Results are given in words; binding and its absence hold for the method and conditions named. Binding seen in cells or lysates may run through a third protein. A yes stands for co-enrichment or nearness to the bait. Other partners may have been found.
Molecular target: OsAP4-His (rice (Oryza sativa))
Test: affinity purification with mass spectrometry; total proteins from rice plants incubated with E. coli-expressed OsAP4-His; pull-down coupled with mass spectrometry; only the target purified

B1: OsCATC (enzyme, UniProt Q10S82 1-492)
chain: MDPYKHRPSSSFNGPLWSTNSGAPVWNNNNSLTVGSRGPILLEDYHLVEKLANFDRERIPERVVHARGASAKGFFEVTHDITHLTCADFLRAPGVQTPVIVRFSTVIHERGSPETLRDPRGFAIKFYTREGNWDLVGNNFPVFFIRDGMKFPDMVHSLKPNPKSHVQENWRILDFFSHHPESLHMFTFLFDDIGIPADYRHMDGSGVNTYTLVNRAGKSHYVKFHWKPTCGVKSLLDDEAVTVGGTNHSHATQDLYDSIAAGNFPEWKLFIQTIDPDHEDRFDFDPLDVTKTWPEDIVPLQPVGRMVLNRNIDNFFSENEQLAFCPGIIVPGIYYSDDKLLQTRIFSYSDTQRHRLGPNYLLLPPNAPKCAHHNNHYDGFMNFMHRDEEVDYFPSRYDPAKHAPRYPIPSATLTGRREKVVIAKENNFKQPGERYRSWDPARQDRFIKRWIDALSDPRLTHEIRSIWLSYWSQADRSLGQKLASRLSAKPSM
B1 was tested, and the binding was “binds”.

Reference: PMC12298810
